Assay results from PubChem BioAssay AID540256 (National Center for Advancing Translational Sciences (NCATS), 2011).
Screen size: about 300,000 compounds; about 3,700 (1.2%) were called active. Inconclusive means that the source gave no clear call. Such entries were picked first, then a sample of the others. The call rests on the fitted dose curve; tested in HEK293 cells. Potencies beside an inconclusive call are fits to weak or partial responses and may not hold up.

Test: qHTS for Inhibitors of binding or entry into cells for Lassa Virus; further: nearly all actives have a fitted effect of over 50% in size
Settings: Lassa virus pseudotype entry inhibition, cell reporter; series mostly up to 37.9 µM
Potency means the concentration at half of the fitted maximal effect.

Row | Structure (SMILES) | Potency
1 | O=C(c1ccc(Cl)cc1)N1CCN=C1c1ccccc1 | inconclusive: 32.6 µM [inhibitor, partial curve, poor fit]
2 | O=C(NCc1cccs1)c1nn2cccnc2c1Cl | inconclusive: 28.2 µM [activator, partial curve, poor fit]
3 | Cc1ccc(NC(=O)c2ccc3c(c2)[nH]c(=O)n3C(C)C)cc1 | inconclusive: 2.51 µM [inhibitor, partial curve, poor fit]
4 | O=S(=O)(c1cccc2c(I)cccc12)N1CCCNCC1 | inconclusive: 29.1 µM [inhibitor, single point]
5 | OC(c1ccccc1)C(O)C(c1ccccc1)N1CCCCC1 (stereo unspecified) | inactive
6 | Cc1ccc(-n2c(SCC(=O)Nc3ccc4c5c(cccc35)CC4)nc(O)cc2=O)cc1 | inactive
7 | CCOc1ccc(NS(=O)(=O)c2ccc3[nH]c(=O)[nH]c3c2)cc1 | inconclusive: 5.62 µM [inhibitor, single point]
8 | CCN(CC)CCn1c(N)nc2ccccc21 | inactive
9 | Cc1cc(N2CCC(C(=O)NC3CCCCC3)CC2)nc(-c2ccccc2)n1 | inactive
10 | CCCOc1ccc(N2C(=O)CC(NNC(=O)c3ccc(COc4ccccc4)o3)C2=O)cc1 (stereo unspecified) | inconclusive: 25.9 µM [inhibitor, partial curve]
11 | CC1CCN(CCCNC(=O)c2n[nH]c(=O)c3ccccc23)CC1 | inactive
12 | Cc1cccc2sc(N(CCCN(C)C)C(=O)c3sc4ccccc4c3Cl)nc12 | inactive
13 | c1ccc(N2CC3CCc4ccccc4C3=N2)cc1 (stereo unspecified) | inconclusive: 35.5 µM [inhibitor, single point]
14 | CN(CC(=O)Nc1ccc(Cl)c(Cl)c1)C(=O)CNC(=O)Cc1ccccc1 | inconclusive: 35.5 µM [inhibitor, single point]
15 | COc1ccc(N2CC(C(=O)N3CCN(c4ccccc4OC)CC3)CC2=O)cc1 (stereo unspecified) | inconclusive: 11.2 µM [inhibitor, partial curve, poor fit]
16 | CN(C)c1ccc(N=Cc2nc(-c3ccccc3)oc2OC(=O)c2cccc(Br)c2)cc1 | inactive
17 | CN(C)c1ccc(/C=N/NC(=O)c2ccccc2)cc1 | active: 10 µM
18 | Cc1ccc(-c2csc(NC(=O)Cc3cccs3)n2)cc1C | active: 15.8 µM
19 | Nc1nc(Nc2cccc(F)c2)nc(NCc2ccco2)c1[N+](=O)[O-] | inconclusive: 35.5 µM [inhibitor, single point]
20 | COCCN(C)Cc1cn(-c2ccc(F)cc2F)nc1-c1ccccc1C | inconclusive: 35.5 µM [inhibitor, single point]
21 | COc1ccccc1N1CCN(C(=O)CNC(=O)c2ccc(Cl)cc2Cl)CC1 | inactive
22 | Cc1nnc(NC(=O)CCn2c(=O)oc3ccccc32)s1 | inactive
23 | CCOc1ccc(CNC(=O)c2ccc(Sc3ccc(C)cc3)c(N)c2)cc1OC | inconclusive: 10 µM [inhibitor, partial curve, poor fit]

Records 14 to 21 from above:
Row | Structure (SMILES) | Potency
14 | CN(CC(=O)Nc1ccc(Cl)c(Cl)c1)C(=O)CNC(=O)Cc1ccccc1 | inconclusive: 35.5 µM [inhibitor, single point]
15 | COc1ccc(N2CC(C(=O)N3CCN(c4ccccc4OC)CC3)CC2=O)cc1 (stereo unspecified) | inconclusive: 11.2 µM [inhibitor, partial curve, poor fit]
16 | CN(C)c1ccc(N=Cc2nc(-c3ccccc3)oc2OC(=O)c2cccc(Br)c2)cc1 | inactive
17 | CN(C)c1ccc(/C=N/NC(=O)c2ccccc2)cc1 | active: 10 µM
18 | Cc1ccc(-c2csc(NC(=O)Cc3cccs3)n2)cc1C | active: 15.8 µM
19 | Nc1nc(Nc2cccc(F)c2)nc(NCc2ccco2)c1[N+](=O)[O-] | inconclusive: 35.5 µM [inhibitor, single point]
20 | COCCN(C)Cc1cn(-c2ccc(F)cc2F)nc1-c1ccccc1C | inconclusive: 35.5 µM [inhibitor, single point]
21 | COc1ccccc1N1CCN(C(=O)CNC(=O)c2ccc(Cl)cc2Cl)CC1 | inactive

(further entries)

Row | Structure (SMILES) | Potency
24 | CCn1c(=O)c2cc(C(=O)NCCc3ccc(OC)c(OC)c3)sc2c2ccccc21 | inactive
25 | COc1ccc2cc(C(=O)C3CCCN(C(=O)c4cccnc4)C3)ccc2c1 (stereo unspecified) | inconclusive: 12.6 µM [inhibitor, single point]
26 | COc1ccccc1Nc1nc2nonc2[nH]c1=O | inconclusive: 3.16 µM [inhibitor, partial curve, poor fit]
27 | O=C(c1ccccc1)N1CCC(c2nc3c(nnn3Cc3ccccc3Cl)c(=O)[nH]2)CC1 | inconclusive: 14.6 µM [inhibitor, partial curve, poor fit]
28 | Cc1cc(/C=C2\SC(=Nc3ccccc3)NC2=O)c(C)n1-c1ccc(S(N)(=O)=O)cc1 | inconclusive: 8.91 µM [inhibitor, partial curve]
29 | COc1ccc(OC2C(=O)N(CCc3ccc(OC)c(OC)c3)C2c2ccc3c(c2)OCO3)cc1 (stereo unspecified) | inconclusive: 15.8 µM [inhibitor, single point]
30 | C=CCn1ccc2c([N+](=O)[O-])cccc2c1=O | inconclusive: 35.5 µM [inhibitor, single point]
31 | CC(C)(C)OC(=O)N1CCC(c2c(C(=O)NCC3CCN(C4CCCC4)C3)cnn2-c2ccc(F)cc2)CC1 (stereo unspecified) | inconclusive: 1.78 µM [activator, partial curve, poor fit]
32 | COc1ccc(OCC(=O)Nc2ccc3c(c2)N(C)C(=O)c2ccccc2S3)cc1 | inactive
33 | Cc1nc2ccc(NC(=O)N3CCOCC3)cc2nc1C | inconclusive: 10 µM [activator, partial curve, poor fit]
34 | Cc1cc2c(=O)oc(-c3ccccc3Br)nc2s1 | inconclusive: 1.26 µM [inhibitor, single point]
35 | N#C/C(=N\O)c1nc(-c2ccccc2)cs1 | inactive
36 | COc1ccc(-c2oc3ncnc(NCCCO)c3c2-c2ccc(OC)cc2)cc1 | inconclusive: 35.5 µM [inhibitor, single point]
37 | O=C1NC(=O)N(Cc2ccccc2)C(=O)/C1=C\C=C\c1ccco1 | inconclusive: 35.5 µM [inhibitor, single point]
38 | CCOC(=O)Cc1csc(NC(=S)NC(=O)c2ccc([N+](=O)[O-])cc2)n1 | inactive
39 | COc1cccc(CNn2c(-c3cccc(C)c3)nc3ccccc3c2=O)c1 | active: 18.3 µM
40 | Cn1c(Cc2cccc3ccccc23)nnc1SCC(=O)N1CCN(c2cccc(Cl)c2)CC1 | inconclusive: 35.5 µM [inhibitor, single point]
41 | CCN(C(=O)COC(=O)c1cccc(S(=O)(=O)N2CCOCC2)c1)C1CCS(=O)(=O)C1 (stereo unspecified) | inactive
42 | CCOc1ccc(Nc2cc(C)c(C#N)c3nc4ccccc4n23)cc1 | inactive
43 | Cc1ccc2c(c1)C(c1ccncc1)=NNC(c1ccc(F)cc1)=N2 | inactive
44 | Cc1ccc(S(=O)(=O)c2nc(-c3ccco3)oc2SCC(=O)c2ccc(Cl)cc2)cc1 | inconclusive: 5.62 µM [inhibitor, full curve]
45 | Cc1cccc(NCc2ccc(O)c3ncccc23)c1C | inconclusive: 10 µM [inhibitor, partial curve, poor fit]
46 | Cc1c(O)ccc2c(CN(C)Cc3ccccc3)cc(=O)oc12 | inconclusive: 6.31 µM [inhibitor, partial curve, poor fit]
